Some of the results follow.
target: T1, OsSMF1 (Oryza sativa, UniProt Q6ZLB0 1-436); assay: protein-binding microarray (RPBM); PBS, 2% BSA, 51.3 ng/ul salmon testes DNA, 50 uM zinc acetate, 200 nM TF, 25 C, 1 h; high values mean tight binding; settings: protein: recombinant; tags: N-terminal polyhistidine and DsRed monomer fusion (pET32a); chain copies: 2; label: CyDye5-dUTP incorporated in the synthesized complementary strand; 3' TTTTT single-stranded linker to array surface; dsDNA, one strand shown
T1 sequence: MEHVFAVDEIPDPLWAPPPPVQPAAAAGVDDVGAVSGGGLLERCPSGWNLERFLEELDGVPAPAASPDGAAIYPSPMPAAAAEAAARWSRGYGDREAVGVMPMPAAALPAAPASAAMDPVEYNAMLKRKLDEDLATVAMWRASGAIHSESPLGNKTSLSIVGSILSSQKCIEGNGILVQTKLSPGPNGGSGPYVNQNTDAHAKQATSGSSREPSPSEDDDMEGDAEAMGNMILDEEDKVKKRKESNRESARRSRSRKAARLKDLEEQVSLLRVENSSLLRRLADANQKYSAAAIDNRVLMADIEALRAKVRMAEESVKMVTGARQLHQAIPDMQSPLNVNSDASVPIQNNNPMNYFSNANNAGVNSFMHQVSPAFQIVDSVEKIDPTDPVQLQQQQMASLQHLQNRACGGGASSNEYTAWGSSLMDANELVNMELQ
Outline: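 Per-feature fluorescence intensity (arbitrary units), read on an Axon 4000B scanner, is the binding signal. Transcription factors carrying an N-terminal polyhistidine tag and DsRed fusion were expressed in E. coli BL21-CodonPlus and purified on Ni–NTA. A custom Agilent array, made double-stranded by primer extension with Cy5-dUTP and blocked with 2% BSA, was incubated with 200 nM protein in PBS, 2% BSA, salmon testes DNA and 50 µM zinc acetate at 25 °C for 1 h and then washed.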

Row | Sequence | binding signal
1 | TGATGGATACCCAAATATCCAATGCGTCCTCAAGTCCATGCGGAGTCACCTAGTGCAG | 3780 fluorescence intensity (a.u.)
2 | TCATTGACTCATGTGGGTCCTACGTGTCATTGAGATACCGCGGAGTCACCTAGTGCAG | 12300 fluorescence intensity (a.u.)
3 | GACTCGCGCGCGGCGAGCGACACGCGGCCGGCTGCGCGGGCGGAGTCACCTAGTGCAG | 3140 fluorescence intensity (a.u.)
4 | GATGGAGGATGGGCGAGAGCGAGCAGTTACCGCGTGCAGGCGGAGTCACCTAGTGCAG | 4520 fluorescence intensity (a.u.)
5 | CGGGGAATGCCATTGCCACCGCGTCACCCGTTGTTCGGATCGGAGTCACCTAGTGCAG | 5920 fluorescence intensity (a.u.)
6 | AAGCTGTTCAACGTTCTGATGCGTGACCTTGTCAGATTGGCGGAGTCACCTAGTGCAG | 3640 fluorescence intensity (a.u.)
7 | AGATGCCGCCTTCGTCTCCTCGCCGACGTCACCGCCACCCCGGAGTCACCTAGTGCAG | 8260 fluorescence intensity (a.u.)
8 | AAAAGCTCGTGACTCGTTAGCTCGCTCGGTTCGTGTCTGGCGGAGTCACCTAGTGCAG | 3420 fluorescence intensity (a.u.)
9 | GTTCGTCCCCAACGCCACGCCGCCACCAACCGCGCCGCCCCGGAGTCACCTAGTGCAG | 4580 fluorescence intensity (a.u.)
10 | AGCAGCATGATTAGTACAGCACACCTTTGCGGATCCAATGCGGAGTCACCTAGTGCAG | 3570 fluorescence intensity (a.u.)
11 | TCTAGCATGTCATTCGGTATATGCTAAGTCAGCCAAAGTGCGGAGTCACCTAGTGCAG | 3620 fluorescence intensity (a.u.)
12 | CGCTGCCGCTGCCGTGGTCCTACGTCCTGCGCCGCCGCTGCGGAGTCACCTAGTGCAG | 4000 fluorescence intensity (a.u.)
13 | GTGCACCACCGCACACGGATCCACCTCCTGTCTCGTCGCACGGAGTCACCTAGTGCAG | 27400 fluorescence intensity (a.u.)
14 | CACTCCCGTAACCGATTCGCTTTCACACGACACCGCGACGCGGAGTCACCTAGTGCAG | 3180 fluorescence intensity (a.u.)
15 | GCTCCTCTCGTGTCGTCTTCACCAAAGCGAACTCCTCACTCGGAGTCACCTAGTGCAG | 3350 fluorescence intensity (a.u.)
16 | CTCAACCTATTGTGTGGATCCGGACCCTCATATTATCCATCGGAGTCACCTAGTGCAG | 4110 fluorescence intensity (a.u.)
17 | TCTAGACAATCAAGCCGCTAGAAGTTTCATAGAGTGGTAGCGGAGTCACCTAGTGCAG | 7160 fluorescence intensity (a.u.)
18 | CTCTCTTTCTCGCAGCCGCACGCGCGGAGGCCGATTCGGCCGGAGTCACCTAGTGCAG | 3290 fluorescence intensity (a.u.)
19 | ATATATATATATATATATATATTGATGATTTAATGAAACTCGGAGTCACCTAGTGCAG | 14200 fluorescence intensity (a.u.)
20 | TCTGTTAGTCTCTGCCACGAACGCACGAGCACTGCATCTCCGGAGTCACCTAGTGCAG | 4160 fluorescence intensity (a.u.)
21 | GCTCGTTGGAACGTTCGTTGCGGACGCACGCGCTACGAGCCGGAGTCACCTAGTGCAG | 3290 fluorescence intensity (a.u.)

Row | Sequence | binding signal
22 | ACTGGTAATATTCGCATATATATATATATATATATATATACGGAGTCACCTAGTGCAG | 3470 fluorescence intensity (a.u.)
23 | AATAATTCCACATCACAATAGGTGTGGAATAAATCCCCTCCGGAGTCACCTAGTGCAG | 5300 fluorescence intensity (a.u.)
24 | GATGGCGTCATTGAAATTTGACATAGTATTTTATCATTCGCGGAGTCACCTAGTGCAG | 11500 fluorescence intensity (a.u.)
25 | ATTTACGAGACAGTGCCCATTGATACGTGGCAGCAGAACCCGGAGTCACCTAGTGCAG | 13700 fluorescence intensity (a.u.)
26 | ATTATGCTTTGAAATTAGAGATGGGGTAGCATATTTGTTGCGGAGTCACCTAGTGCAG | 19700 fluorescence intensity (a.u.)
27 | TCGATCTCGCCCAATTTTAGATTCTAATGATCAGGGTAGACGGAGTCACCTAGTGCAG | 14400 fluorescence intensity (a.u.)
28 | AAGTATGGGCCCGCTGATGTGTAGCCTTGCTTGGAGGCCCCGGAGTCACCTAGTGCAG | 3560 fluorescence intensity (a.u.)
29 | CTATTGGAGCTATAGGGTTCTACAAGTCAGCAAGACATGTCGGAGTCACCTAGTGCAG | 5160 fluorescence intensity (a.u.)
30 | TTCGCCTGCGGCGCGTGACGTCACGTCGTCGTCGTCGGCCCGGAGTCACCTAGTGCAG | 19200 fluorescence intensity (a.u.)
31 | AAGTAGCCCGGATCTCCCAGCTTCCCTCGAGCTGACCTCACGGAGTCACCTAGTGCAG | 3960 fluorescence intensity (a.u.)
32 | GCTGGTGCGCCGCTGCAACCCACGCGTCAAGTTCGCCCGGCGGAGTCACCTAGTGCAG | 3830 fluorescence intensity (a.u.)
33 | CCCACCATCTTTTATTATTTATGTGTAACTGACATGTGGACGGAGTCACCTAGTGCAG | 3420 fluorescence intensity (a.u.)
34 | CTTGATGCGCTCGCCGCTGATCTGGAGGACGTTGCCGTCCCGGAGTCACCTAGTGCAG | 4150 fluorescence intensity (a.u.)
35 | TACTTGGTCCCACGTGTTATATATACACTGCGTCTTGGAGCGGAGTCACCTAGTGCAG | 8580 fluorescence intensity (a.u.)
36 | CATCTCCATTCTTTCATCCTCATCTCTAATGGAGAATTTCCGGAGTCACCTAGTGCAG | 3920 fluorescence intensity (a.u.)
37 | GGGTCTCATGCGACAGCAGCGGGAAGTGGGTCACTGGGCTCGGAGTCACCTAGTGCAG | 3810 fluorescence intensity (a.u.)
38 | ACCACGCCATGAGTTGCATCCATGCATGCTTCTATTCATTCGGAGTCACCTAGTGCAG | 3360 fluorescence intensity (a.u.)
39 | TCCATGACTATGCAAAACCATCTATCTCTCTTTAAACATGCGGAGTCACCTAGTGCAG | 3740 fluorescence intensity (a.u.)
40 | CCTCATTGGCAATGGTGACGAGGGATCGTGGCATTCAGGGCGGAGTCACCTAGTGCAG | 3980 fluorescence intensity (a.u.)
41 | GCGGTCGAATGCTGCTGCCACCTGCTGTCTCATGATCTTGCGGAGTCACCTAGTGCAG | 3660 fluorescence intensity (a.u.)
42 | AAACACTGAAATTTTAGCATCACGAAGTTCTCACCGAGACCGGAGTCACCTAGTGCAG | 5200 fluorescence intensity (a.u.)

Pulled one by one from above (3):
Row | Sequence | binding signal
4 | GATGGAGGATGGGCGAGAGCGAGCAGTTACCGCGTGCAGGCGGAGTCACCTAGTGCAG | 4520 fluorescence intensity (a.u.)
8 | AAAAGCTCGTGACTCGTTAGCTCGCTCGGTTCGTGTCTGGCGGAGTCACCTAGTGCAG | 3420 fluorescence intensity (a.u.)
35 | TACTTGGTCCCACGTGTTATATATACACTGCGTCTTGGAGCGGAGTCACCTAGTGCAG | 8580 fluorescence intensity (a.u.)
